The results in this text go back to article PMC12501224.

Sequences of proteins named here, by UniProt entry; tags and fusion partners are left off.
UniProt P28741: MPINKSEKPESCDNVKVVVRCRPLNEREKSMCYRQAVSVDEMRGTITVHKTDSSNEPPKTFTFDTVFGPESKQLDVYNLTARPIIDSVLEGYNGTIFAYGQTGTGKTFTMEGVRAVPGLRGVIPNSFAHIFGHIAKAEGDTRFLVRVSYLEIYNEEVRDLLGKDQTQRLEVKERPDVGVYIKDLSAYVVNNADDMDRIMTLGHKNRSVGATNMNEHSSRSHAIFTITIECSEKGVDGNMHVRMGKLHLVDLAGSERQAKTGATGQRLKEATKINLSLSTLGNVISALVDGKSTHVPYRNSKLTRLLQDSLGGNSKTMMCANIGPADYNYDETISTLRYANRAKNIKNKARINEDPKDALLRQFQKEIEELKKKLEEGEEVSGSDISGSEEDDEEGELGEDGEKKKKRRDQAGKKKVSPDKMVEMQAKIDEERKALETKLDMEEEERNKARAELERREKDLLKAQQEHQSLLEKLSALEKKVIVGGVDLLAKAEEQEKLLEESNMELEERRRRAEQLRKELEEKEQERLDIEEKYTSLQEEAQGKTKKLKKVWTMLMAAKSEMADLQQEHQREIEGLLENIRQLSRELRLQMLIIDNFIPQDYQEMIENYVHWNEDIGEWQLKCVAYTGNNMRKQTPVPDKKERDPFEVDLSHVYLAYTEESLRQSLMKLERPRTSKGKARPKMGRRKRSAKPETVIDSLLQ

Results are given in words; binding and its absence hold for the method and conditions named. In cells and extracts the contact can be indirect. Some entries that bind do so weakly or less than the wild type.

This experiment concerns the target T1, Eftud2 (elongation factor Tu GTP binding domain containing 2) (mouse (endogenous in SmoM2^Atoh1 mouse tumors)) (UniProt O08810).
T1 sequence: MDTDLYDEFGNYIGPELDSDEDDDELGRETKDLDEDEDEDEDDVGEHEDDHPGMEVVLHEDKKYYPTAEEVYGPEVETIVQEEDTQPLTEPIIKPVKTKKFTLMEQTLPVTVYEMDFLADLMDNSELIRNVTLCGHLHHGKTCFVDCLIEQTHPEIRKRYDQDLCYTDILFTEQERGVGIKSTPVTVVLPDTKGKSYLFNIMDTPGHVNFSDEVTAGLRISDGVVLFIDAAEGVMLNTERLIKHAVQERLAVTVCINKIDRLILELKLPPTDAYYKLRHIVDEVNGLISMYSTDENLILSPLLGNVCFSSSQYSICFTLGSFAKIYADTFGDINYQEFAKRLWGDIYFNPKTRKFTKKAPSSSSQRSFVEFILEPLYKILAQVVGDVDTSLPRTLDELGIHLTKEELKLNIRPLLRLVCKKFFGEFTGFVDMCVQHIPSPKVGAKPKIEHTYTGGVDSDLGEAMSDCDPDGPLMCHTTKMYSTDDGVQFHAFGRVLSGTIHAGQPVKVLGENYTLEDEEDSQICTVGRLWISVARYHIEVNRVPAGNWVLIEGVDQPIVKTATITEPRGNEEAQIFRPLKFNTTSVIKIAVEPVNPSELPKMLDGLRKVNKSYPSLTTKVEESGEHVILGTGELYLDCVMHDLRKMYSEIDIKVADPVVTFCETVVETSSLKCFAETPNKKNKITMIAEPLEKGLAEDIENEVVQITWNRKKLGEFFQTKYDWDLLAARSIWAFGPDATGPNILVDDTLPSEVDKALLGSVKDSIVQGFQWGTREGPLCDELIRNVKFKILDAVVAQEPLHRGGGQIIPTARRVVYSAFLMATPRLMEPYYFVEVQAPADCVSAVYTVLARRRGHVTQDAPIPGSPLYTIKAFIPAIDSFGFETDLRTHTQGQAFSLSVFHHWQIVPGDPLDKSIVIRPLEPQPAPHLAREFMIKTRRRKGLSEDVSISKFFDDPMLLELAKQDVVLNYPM
The experiment in a line: co-IP; lysate of SmoM2^Atoh1 mouse tumors (50 mM Tris pH 7.5, 150 mM NaCl, 10 mM MgCl2, 1% Triton X-100, 10% glycerol, 1 mM EDTA); primary antibody (1 ug/ml lysate) with protein A/G magnetic agarose beads overnight; 3 washes; immunoblot.

“Kif3a (kinesin family member 3A) (from UniProt P28741 1-701)”: the binding entry is “binds”.
